At least one structure is not confirmed: it was looked up by name or label, or the drawing left a doubt.
Target: T1, cholesterol esterase (Bos taurus, UniProt P30122)
T1 construct: assayed with taurocholate in ether/phosphate emulsion
T1 sequence (P30122 19-597): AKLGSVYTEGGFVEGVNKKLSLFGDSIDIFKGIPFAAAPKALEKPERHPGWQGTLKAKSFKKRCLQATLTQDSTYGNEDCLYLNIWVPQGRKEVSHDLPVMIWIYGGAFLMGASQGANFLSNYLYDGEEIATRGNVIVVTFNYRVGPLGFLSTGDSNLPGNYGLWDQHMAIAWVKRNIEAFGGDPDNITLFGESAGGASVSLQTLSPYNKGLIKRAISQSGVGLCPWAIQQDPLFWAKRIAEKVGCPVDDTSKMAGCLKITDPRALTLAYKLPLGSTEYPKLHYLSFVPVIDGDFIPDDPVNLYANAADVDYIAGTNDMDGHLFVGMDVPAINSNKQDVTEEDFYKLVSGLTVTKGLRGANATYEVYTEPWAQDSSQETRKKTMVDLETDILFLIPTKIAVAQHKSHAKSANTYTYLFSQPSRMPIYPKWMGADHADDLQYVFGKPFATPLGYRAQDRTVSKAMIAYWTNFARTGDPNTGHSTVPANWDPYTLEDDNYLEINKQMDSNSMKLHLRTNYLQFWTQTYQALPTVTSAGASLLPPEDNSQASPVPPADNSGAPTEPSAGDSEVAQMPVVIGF
Test: Cholesterol esterase catalyzed hydrolysis of esters, relative rate by pH stat
Type: biochemical
Conditions: commercial cholesterol esterase, 0.1 N NaOH to hold pH 7.0, emulsion of ester (1.0 mmol) in ethyl ether (10 mL) and 10 mM phosphate buffer pH 7.0 with 30 mg sodium taurocholate
Experimental: In similar manner as Example 2 commercial samples of cholesterol esterase are shown to catalyze the enantiospecific hydrolysis of diesters of 1,1'-bi-2-naphthol listed in the following Table.
^(a) The relative rate of hydrolysis is measured using a pH stat whic
measures the amount of base (0.1 N NaOH) required to maintain the pH at
7.0 for an emulsion of ester (1.0 mmol) dissolved in ethyl ether (10
milliliter) and aqueous buffer (10 milliliters of 10 mM phosphate, pH 7.0
containing 30 milligrams sodium taurocholate).

SMILES: CCCCCCC(=O)Oc1ccc2ccccc2c1-c1c(OC(=O)CCCCCC)ccc2ccccc12 [Heptanoate]
- Relative Rate (relative rate of hydrolysis): 0.3
